In the supplement of paper PMC4604168 (melanoma cell lines):
Some of the results follow. Single values are uncertain, as repeats are few or missing.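 The apoptosis fraction was the count of cleaved-PARP antibody-stained nuclei relative to all DNA-stained nuclei, imaged in 1,536-well plates. Screening doses were set so most cells survived, and baseline and induced cleaved-PARP levels vary greatly across cell lines.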

Legend:
Experiment in all cases: cleaved PARP positive nuclei fraction relative to DMSO control; melanoma cells; higher = more apoptosis
Conditions in all cases: library dose: low library concentration; 72 h
MZ2-MEL = test system: MZ2-MEL
MeWo = test system: MeWo
RPMI7951 = test system: RPMI7951
RVH-421 = test system: RVH-421
SkMel28 = test system: SkMel28
SkMel2 = test system: SkMel2
SkMel30 = test system: SkMel30
SkMel5 = test system: SkMel5
UACC257 = test system: UACC257
UACC62 = test system: UACC62
WM115 = test system: WM115
WM1716 = test system: WM1716
WM1745 = test system: WM1745
WM3526 = test system: WM3526
WM3619 = test system: WM3619
WM451Lu = test system: WM451Lu

Row | Compound | cleaved PARP positive nuclei fraction (MZ2-MEL) [%] | cleaved PARP positive nuclei fraction (MeWo) [%] | cleaved PARP positive nuclei fraction (RPMI7951) [%] | cleaved PARP positive nuclei fraction (RVH-421) [%] | cleaved PARP positive nuclei fraction (SkMel28) [%] | cleaved PARP positive nuclei fraction (SkMel2) [%] | cleaved PARP positive nuclei fraction (SkMel30) [%] | cleaved PARP positive nuclei fraction (SkMel5) [%] | cleaved PARP positive nuclei fraction (UACC257) [%] | cleaved PARP positive nuclei fraction (UACC62) [%] | cleaved PARP positive nuclei fraction (WM115) [%] | cleaved PARP positive nuclei fraction (WM1716) [%] | cleaved PARP positive nuclei fraction (WM1745) [%] | cleaved PARP positive nuclei fraction (WM3526) [%] | cleaved PARP positive nuclei fraction (WM3619) [%] | cleaved PARP positive nuclei fraction (WM451Lu) [%]
1 | O=C(O)c1ccc2c(c1)nc(Nc1cccc(Cl)c1)c1ccncc12 + O=c1cc(-c2cccc3c2Sc2ccccc2S3)oc(N2CCOCC2)c1 [KU55933] (first compound 0.4 µM, partner dose 1 µM) | 115 | 250 | 76.9 | 119 | 47.9 | 66.8 | 132 | 84.7 | 44.9 | 64.5 | 186 | 391 | 182 | 262 | 204 | 35.4
2 | Cc1cc(Nc2cc(N3CCN(C)CC3)nc(/C=C/c3ccccc3)n2)n[nH]1 + CCc1ccc(CCOc2ccc(CC3SC(=O)NC3=O)cc2)nc1 [pioglitazone] (first compound 0.04 µM, partner dose 2 µM) | 30.1 | 48.4 | 112 | 120 | 127 | 169 | 252 | 80.3 | 214 | 77.4 | 130 | 102 | 96.7 | 72.9 | 81.8 | 23.9
3 | C=C(c1ccc(C(=O)O)cc1)c1cc2c(cc1C)C(C)(C)CCC2(C)C [Bexarotene] + COc1cc(N2CCC(N3CCN(C)CC3)CC2)ccc1Nc1ncc(Cl)c(Nc2ccccc2S(=O)(=O)C(C)C)n1 [NVP-TAE684] (first compound 2 µM, partner dose 0.08 µM) | 143 | 43.4 | 77.5 | 84.7 | 196 | 77.5 | 88.2 | 37.4 | 168 | 201 | 48.9 | 103 | 86.6 | 86 | 119 | 37
4 | CN1CCN(c2ccc3nc(-c4c(N)c5c(F)cccc5[nH]c4=O)[nH]c3c2)CC1 [Dovitinib] + OCCn1cc(-c2cnc3nnn(Cc4ccc5ncccc5c4)c3n2)cn1 [PF04217903] (first compound 0.1 µM, partner dose 1 µM) | 161 | 114 | 78.3 | 46.5 | 89.1 | 137 | 265 | 194 | 60 | 234 | 144 | 76.4 | 81.5 | 66.2 | 88.1 | 84
5 | CCCS(=O)(=O)Nc1ccc(F)c(C(=O)c2c[nH]c3ncc(Cl)cc23)c1F + O=C(Nc1ccccc1)c1cc([N+](=O)[O-])ccc1Cl [GW9662] (first compound 0.08 µM, partner dose 2 µM) | 194 | 93.7 | 132 | 41.1 | 155 | 37.4 | 400 | 72.4 | 127 | 401 | 109 | 100 | 101 | 185 | 92 | 94.7
6 | O=C(O)c1ccc2c(c1)nc(Nc1cccc(Cl)c1)c1ccncc12 + COc1ccc(COc2ccc(Cc3cnc(N)nc3N)cc2OC)cc1 [GW2580] (first compound 0.4 µM, partner dose 1 µM) | 195 | 60.9 | 34.8 | 38.7 | 23.9 | 123 | 78.5 | 78.2 | 76.9 | 99.9 | 228 | 244 | 94 | 98.2 | 76 | 51.4
7 | Nc1ncn([C@H]2C[C@H](O)[C@@H](CO)O2)c(=O)n1 [decitabine] + CN(NC(=O)CC(=O)NN(C)C(=S)c1ccccc1)C(=S)c1ccccc1 [STA4783] (first compound 0.1 µM, partner dose 0.006 µM) | 129 | 78.5 | 164 | 77.6 | 447 | 106 | 63.1 | 40 | 192 | 116 | 235 | 52.9 | 105 | 114 | 87.3 | 83.7
8 | CCCS(=O)(=O)Nc1ccc(F)c(C(=O)c2c[nH]c3ncc(Cl)cc23)c1F + O=C(O)C(=O)Nc1sc2c(c1C(=O)O)CCNC2 [TCS401] (first compound 0.08 µM, partner dose 1.66667 µM) | 149 | 77.5 | 97.4 | 122 | 252 | 68.6 | 93.9 | 222 | 90.8 | 304 | 36.3 | 81.6 | 103 | 101 | 90.4 | 67.8
9 | C[C@@H](Oc1cc(-c2cnn(C3CCNCC3)c2)cnc1N)c1c(Cl)ccc(F)c1Cl [Crizotinib] + NC(=O)Nc1cc(-c2cccc(F)c2)sc1C(=O)N[C@H]1CCCNC1 [AZD7762] (first compound 0.2 µM, partner dose 0.02 µM) | 74.6 | 103 | 50.6 | 86 | 127 | 177 | 107 | 89.8 | 54.5 | 91.3 | 117 | 81.6 | 83.7 | 63.8 | 170 | 58.1
10 | CC(C)C[C@H](NC(=O)[C@H](Cc1ccccc1)NC(=O)c1cnccn1)B(O)O [Bortezomib] + CCc1ccc(CCOc2ccc(CC3SC(=O)NC3=O)cc2)nc1 [pioglitazone] (first compound 0.001 µM, partner dose 2 µM) | 142 | 100 | 194 | 210 | 112 | 143 | 163 | 73.2 | 117 | 53.8 | 113 | 689 | 144 | 177 | 773 | 131
